Laboratory results taken from article doi:10.1101/2021.05.12.443731.
No constants are given. Whether binding was seen depends on the method and setting. Binding seen in cells or lysates may run through a third protein. These calls come from enrichment with a bait or labelling near it, and not all partners need be listed.

Chains of the proteins cited; added tags and fusions are not shown.
UniProt Q92841: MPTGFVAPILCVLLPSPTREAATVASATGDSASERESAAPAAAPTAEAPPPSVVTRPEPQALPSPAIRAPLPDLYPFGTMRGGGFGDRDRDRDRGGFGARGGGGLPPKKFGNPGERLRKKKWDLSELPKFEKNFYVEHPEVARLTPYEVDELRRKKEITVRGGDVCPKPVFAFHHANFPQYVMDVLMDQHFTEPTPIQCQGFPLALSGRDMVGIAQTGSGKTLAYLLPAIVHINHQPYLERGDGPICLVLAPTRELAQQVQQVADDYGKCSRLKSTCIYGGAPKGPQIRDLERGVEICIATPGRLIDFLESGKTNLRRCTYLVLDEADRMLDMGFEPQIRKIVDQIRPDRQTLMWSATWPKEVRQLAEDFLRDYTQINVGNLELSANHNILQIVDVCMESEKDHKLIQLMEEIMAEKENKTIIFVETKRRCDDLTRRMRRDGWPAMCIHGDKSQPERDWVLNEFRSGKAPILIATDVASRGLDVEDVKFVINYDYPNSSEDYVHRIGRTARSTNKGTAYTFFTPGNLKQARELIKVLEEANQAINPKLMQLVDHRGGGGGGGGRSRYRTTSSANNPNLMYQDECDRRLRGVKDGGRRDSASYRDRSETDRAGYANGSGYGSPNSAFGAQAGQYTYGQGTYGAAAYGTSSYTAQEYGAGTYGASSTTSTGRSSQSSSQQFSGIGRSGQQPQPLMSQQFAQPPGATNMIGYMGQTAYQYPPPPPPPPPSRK
UniProt Q96I24: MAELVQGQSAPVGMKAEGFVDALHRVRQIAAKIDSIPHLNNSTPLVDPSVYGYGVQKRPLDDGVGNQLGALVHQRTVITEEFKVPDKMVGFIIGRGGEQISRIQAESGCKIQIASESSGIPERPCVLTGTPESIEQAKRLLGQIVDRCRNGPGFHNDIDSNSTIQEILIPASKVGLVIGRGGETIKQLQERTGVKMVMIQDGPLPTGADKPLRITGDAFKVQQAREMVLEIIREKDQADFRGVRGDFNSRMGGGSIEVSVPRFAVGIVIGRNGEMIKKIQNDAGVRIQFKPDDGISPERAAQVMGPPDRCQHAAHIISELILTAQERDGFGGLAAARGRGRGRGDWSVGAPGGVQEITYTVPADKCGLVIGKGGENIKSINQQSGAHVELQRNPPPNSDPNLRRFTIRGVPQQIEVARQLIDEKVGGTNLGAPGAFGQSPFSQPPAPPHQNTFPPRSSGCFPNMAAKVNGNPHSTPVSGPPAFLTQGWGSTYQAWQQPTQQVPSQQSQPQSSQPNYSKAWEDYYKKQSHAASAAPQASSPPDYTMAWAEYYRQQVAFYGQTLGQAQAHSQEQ
UniProt P51531: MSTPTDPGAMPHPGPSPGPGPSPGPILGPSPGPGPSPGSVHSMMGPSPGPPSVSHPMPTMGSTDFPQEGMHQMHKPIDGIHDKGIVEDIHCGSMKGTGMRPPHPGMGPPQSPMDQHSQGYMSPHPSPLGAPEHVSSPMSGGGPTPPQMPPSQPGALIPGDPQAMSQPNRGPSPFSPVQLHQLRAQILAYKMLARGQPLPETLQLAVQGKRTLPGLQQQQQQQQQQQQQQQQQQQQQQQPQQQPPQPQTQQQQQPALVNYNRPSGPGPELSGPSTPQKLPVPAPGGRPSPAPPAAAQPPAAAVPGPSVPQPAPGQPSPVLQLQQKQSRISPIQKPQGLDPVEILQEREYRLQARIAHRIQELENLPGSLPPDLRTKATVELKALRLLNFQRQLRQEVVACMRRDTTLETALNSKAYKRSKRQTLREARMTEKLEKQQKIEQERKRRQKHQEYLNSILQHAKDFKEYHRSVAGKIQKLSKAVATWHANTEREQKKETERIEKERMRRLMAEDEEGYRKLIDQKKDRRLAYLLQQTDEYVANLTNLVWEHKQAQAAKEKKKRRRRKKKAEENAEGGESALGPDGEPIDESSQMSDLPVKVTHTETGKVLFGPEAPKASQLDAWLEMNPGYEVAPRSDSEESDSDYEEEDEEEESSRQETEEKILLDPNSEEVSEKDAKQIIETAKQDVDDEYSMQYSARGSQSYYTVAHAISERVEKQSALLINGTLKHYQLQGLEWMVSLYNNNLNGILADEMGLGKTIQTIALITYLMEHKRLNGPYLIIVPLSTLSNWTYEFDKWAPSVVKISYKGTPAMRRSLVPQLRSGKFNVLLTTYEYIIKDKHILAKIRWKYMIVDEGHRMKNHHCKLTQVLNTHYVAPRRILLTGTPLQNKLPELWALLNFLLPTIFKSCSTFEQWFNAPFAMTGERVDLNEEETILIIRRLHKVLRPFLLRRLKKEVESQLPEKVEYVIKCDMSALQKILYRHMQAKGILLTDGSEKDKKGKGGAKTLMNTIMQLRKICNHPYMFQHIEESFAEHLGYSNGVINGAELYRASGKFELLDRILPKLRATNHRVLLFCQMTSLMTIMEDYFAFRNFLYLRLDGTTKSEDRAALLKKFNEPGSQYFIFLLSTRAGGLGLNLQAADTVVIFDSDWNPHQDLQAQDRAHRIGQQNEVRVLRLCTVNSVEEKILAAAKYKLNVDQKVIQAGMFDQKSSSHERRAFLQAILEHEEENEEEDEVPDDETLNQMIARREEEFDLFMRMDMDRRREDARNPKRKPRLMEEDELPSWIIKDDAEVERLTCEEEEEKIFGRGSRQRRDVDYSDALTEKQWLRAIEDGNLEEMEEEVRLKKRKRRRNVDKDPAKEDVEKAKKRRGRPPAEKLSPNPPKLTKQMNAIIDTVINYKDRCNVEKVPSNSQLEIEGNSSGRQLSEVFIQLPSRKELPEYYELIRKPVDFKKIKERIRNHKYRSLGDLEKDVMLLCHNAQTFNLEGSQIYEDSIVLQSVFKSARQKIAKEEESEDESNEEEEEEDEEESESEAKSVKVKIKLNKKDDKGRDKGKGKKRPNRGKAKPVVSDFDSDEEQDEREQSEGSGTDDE
UniProt Q12824: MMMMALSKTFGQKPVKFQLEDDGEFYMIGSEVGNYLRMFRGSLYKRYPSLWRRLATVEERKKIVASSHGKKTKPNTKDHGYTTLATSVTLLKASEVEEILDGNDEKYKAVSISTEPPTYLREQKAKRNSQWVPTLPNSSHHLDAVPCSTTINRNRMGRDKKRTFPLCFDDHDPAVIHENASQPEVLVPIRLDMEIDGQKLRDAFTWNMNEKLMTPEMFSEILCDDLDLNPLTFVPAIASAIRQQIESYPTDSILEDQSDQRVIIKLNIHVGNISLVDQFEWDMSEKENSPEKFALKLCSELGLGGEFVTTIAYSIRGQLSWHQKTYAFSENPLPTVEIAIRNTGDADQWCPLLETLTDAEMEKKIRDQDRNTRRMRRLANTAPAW
UniProt Q8TAQ2: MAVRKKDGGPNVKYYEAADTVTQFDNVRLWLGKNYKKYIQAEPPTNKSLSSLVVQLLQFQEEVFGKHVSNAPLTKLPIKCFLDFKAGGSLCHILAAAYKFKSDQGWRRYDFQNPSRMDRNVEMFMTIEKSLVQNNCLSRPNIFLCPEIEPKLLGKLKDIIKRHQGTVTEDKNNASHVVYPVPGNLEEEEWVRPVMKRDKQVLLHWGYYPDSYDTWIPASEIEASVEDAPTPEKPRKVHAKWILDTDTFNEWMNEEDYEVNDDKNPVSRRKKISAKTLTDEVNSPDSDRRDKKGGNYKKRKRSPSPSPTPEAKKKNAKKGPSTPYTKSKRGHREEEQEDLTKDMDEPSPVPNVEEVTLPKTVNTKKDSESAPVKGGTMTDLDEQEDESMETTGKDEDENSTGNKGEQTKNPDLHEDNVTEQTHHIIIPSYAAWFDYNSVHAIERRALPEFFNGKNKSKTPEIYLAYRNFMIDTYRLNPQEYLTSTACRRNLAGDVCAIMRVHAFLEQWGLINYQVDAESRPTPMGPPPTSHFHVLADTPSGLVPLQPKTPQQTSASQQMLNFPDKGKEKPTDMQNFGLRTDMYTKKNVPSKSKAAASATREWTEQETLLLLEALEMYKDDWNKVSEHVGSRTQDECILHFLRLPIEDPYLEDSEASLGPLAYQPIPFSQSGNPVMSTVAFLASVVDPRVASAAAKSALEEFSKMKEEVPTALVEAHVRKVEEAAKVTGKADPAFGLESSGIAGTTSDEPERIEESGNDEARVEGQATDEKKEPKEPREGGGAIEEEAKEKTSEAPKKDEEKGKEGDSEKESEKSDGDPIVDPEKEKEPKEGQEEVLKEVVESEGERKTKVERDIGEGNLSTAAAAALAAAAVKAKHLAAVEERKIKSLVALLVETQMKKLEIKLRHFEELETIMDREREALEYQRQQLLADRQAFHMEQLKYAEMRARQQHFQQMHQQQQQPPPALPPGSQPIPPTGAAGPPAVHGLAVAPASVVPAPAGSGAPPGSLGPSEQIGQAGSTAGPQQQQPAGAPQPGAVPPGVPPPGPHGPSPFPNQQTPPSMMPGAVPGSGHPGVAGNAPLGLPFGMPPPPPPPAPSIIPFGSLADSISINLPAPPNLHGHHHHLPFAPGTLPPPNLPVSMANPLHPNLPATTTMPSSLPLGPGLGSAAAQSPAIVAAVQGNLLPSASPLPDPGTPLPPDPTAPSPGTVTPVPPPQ
UniProt Q92925: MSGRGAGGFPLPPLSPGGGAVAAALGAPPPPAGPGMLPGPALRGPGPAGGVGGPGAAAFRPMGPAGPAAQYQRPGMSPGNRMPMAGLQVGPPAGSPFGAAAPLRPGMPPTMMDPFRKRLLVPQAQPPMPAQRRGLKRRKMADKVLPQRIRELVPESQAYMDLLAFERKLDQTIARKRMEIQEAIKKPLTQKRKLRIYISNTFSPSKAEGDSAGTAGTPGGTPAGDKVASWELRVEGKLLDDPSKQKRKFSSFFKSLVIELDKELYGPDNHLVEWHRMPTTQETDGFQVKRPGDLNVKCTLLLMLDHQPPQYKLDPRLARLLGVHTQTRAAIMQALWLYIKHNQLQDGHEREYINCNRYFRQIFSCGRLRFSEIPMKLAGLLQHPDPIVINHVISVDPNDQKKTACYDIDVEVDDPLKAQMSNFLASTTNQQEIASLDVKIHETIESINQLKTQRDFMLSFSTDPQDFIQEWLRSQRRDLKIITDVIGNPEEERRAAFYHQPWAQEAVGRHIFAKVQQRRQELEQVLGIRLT
UniProt P19474: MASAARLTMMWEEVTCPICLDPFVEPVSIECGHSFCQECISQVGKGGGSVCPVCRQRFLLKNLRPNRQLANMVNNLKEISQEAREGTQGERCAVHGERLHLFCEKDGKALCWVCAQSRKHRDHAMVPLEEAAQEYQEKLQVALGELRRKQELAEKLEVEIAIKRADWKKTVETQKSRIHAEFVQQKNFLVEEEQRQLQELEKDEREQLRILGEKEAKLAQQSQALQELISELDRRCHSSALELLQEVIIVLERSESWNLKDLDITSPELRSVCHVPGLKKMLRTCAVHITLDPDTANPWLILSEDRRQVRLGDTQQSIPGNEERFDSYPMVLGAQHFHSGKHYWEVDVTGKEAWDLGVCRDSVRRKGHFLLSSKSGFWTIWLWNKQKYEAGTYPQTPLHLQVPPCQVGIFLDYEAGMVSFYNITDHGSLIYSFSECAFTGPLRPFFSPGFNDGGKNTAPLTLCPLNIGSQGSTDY
UniProt Q92769: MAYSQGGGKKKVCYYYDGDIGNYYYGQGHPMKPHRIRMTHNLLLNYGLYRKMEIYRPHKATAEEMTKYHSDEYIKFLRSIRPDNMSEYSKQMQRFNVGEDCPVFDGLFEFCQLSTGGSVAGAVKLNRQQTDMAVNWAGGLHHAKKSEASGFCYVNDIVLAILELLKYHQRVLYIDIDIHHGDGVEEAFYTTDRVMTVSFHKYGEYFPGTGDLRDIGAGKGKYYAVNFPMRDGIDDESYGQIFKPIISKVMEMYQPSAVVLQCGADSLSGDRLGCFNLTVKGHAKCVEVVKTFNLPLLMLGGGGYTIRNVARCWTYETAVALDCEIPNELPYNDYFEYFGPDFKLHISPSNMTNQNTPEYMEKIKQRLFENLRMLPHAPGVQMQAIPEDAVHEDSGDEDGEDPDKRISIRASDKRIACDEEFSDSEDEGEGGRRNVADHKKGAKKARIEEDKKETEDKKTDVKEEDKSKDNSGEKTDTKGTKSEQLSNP
UniProt Q15365: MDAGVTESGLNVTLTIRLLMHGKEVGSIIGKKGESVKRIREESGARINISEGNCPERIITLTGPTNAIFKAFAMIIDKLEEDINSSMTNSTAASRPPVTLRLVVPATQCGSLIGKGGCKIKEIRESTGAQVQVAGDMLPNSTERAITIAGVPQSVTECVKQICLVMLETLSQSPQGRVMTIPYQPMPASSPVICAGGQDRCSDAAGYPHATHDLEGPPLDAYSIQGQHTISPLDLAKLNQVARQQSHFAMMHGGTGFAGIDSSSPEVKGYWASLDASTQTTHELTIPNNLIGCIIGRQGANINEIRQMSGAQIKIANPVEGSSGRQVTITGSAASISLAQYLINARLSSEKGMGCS

T1: FOSL1 (human (endogenous in Th17 cells)) (UniProt P15407)
T1 sequence: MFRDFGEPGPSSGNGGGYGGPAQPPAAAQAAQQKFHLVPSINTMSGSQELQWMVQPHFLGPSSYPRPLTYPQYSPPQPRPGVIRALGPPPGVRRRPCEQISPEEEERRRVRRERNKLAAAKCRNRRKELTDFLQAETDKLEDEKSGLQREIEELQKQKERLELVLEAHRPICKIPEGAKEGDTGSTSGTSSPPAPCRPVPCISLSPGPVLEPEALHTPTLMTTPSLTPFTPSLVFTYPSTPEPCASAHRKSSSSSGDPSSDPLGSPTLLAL

B1: XRN2 (protein, UniProt Q9H0D6 1-950)
chain: MGVPAFFRWLSRKYPSIIVNCVEEKPKECNGVKIPVDASKPNPNDVEFDNLYLDMNGIIHPCTHPEDKPAPKNEDEMMVAIFEYIDRLFSIVRPRRLLYMAIDGVAPRAKMNQQRSRRFRASKEGMEAAVEKQRVREEILAKGGFLPPEEIKERFDSNCITPGTEFMDNLAKCLRYYIADRLNNDPGWKNLTVILSDASAPGEGEHKIMDYIRRQRAQPNHDPNTHHCLCGADADLIMLGLATHEPNFTIIREEFKPNKPKPCGLCNQFGHEVKDCEGLPREKKGKHDELADSLPCAEGEFIFLRLNVLREYLERELTMASLPFTFDVERSIDDWVFMCFFVGNDFLPHLPSLEIRENAIDRLVNIYKNVVHKTGGYLTESGYVNLQRVQMIMLAVGEVEDSIFKKRKDDEDSFRRRQKEKRKRMKRDQPAFTPSGILTPHALGSRNSPGSQVASNPRQAAYEMRMQNNSSPSISPNTSFTSDGSPSPLGGIKRKAEDSDSEPEPEDNVRLWEAGWKQRYYKNKFDVDAADEKFRRKVVQSYVEGLCWVLRYYYQGCASWKWYYPFHYAPFASDFEGIADMPSDFEKGTKPFKPLEQLMGVFPAASGNFLPPSWRKLMSDPDSSIIDFYPEDFAIDLNGKKYAWQGVALLPFVDERRLRAALEEVYPDLTPEETRRNSLGGDVLFVGKHHPLHDFILELYQTGSTEPVEVPPELCHGIQGKFSLDEEAILPDQIVCSPVPMLRDLTQNTVVSINFKDPQFAEDYIFKAVMLPGARKPAAVLKPSDWEKSSNGRQWKPQLGFNRDRRPVHLDQAAFRTLGHVMPRGSGTGIYSNAAPPPVTYQGNLYRPLLRGQAQIPKLMSNMRPQDSWRGPPPLFQQQRFDRGVGAEPLLPWNRMLQTQNAAFQPNQYQMLAGPGGYPPRRDDRGGRQGYPREGRKYPLPPPSGRYNWN
B2: UPF1 (protein, UniProt Q92900 1-1129)
chain: MSVEAYGPSSQTLTFLDTEEAELLGADTQGSEFEFTDFTLPSQTQTPPGGPGGPGGGGAGGPGGAGAGAAAGQLDAQVGPEGILQNGAVDDSVAKTSQLLAELNFEEDEEDTYYTKDLPIHACSYCGIHDPACVVYCNTSKKWFCNGRGNTSGSHIVNHLVRAKCKEVTLHKDGPLGETVLECYNCGCRNVFLLGFIPAKADSVVVLLCRQPCASQSSLKDINWDSSQWQPLIQDRCFLSWLVKIPSEQEQLRARQITAQQINKLEELWKENPSATLEDLEKPGVDEEPQHVLLRYEDAYQYQNIFGPLVKLEADYDKKLKESQTQDNITVRWDLGLNKKRIAYFTLPKTDSGNEDLVIIWLRDMRLMQGDEICLRYKGDLAPLWKGIGHVIKVPDNYGDEIAIELRSSVGAPVEVTHNFQVDFVWKSTSFDRMQSALKTFAVDETSVSGYIYHKLLGHEVEDVIIKCQLPKRFTAQGLPDLNHSQVYAVKTVLQRPLSLIQGPPGTGKTVTSATIVYHLARQGNGPVLVCAPSNIAVDQLTEKIHQTGLKVVRLCAKSREAIDSPVSFLALHNQIRNMDSMPELQKLQQLKDETGELSSADEKRYRALKRTAERELLMNADVICCTCVGAGDPRLAKMQFRSILIDESTQATEPECMVPVVLGAKQLILVGDHCQLGPVVMCKKAAKAGLSQSLFERLVVLGIRPIRLQVQYRMHPALSAFPSNIFYEGSLQNGVTAADRVKKGFDFQWPQPDKPMFFYVTQGQEEIASSGTSYLNRTEAANVEKITTKLLKAGAKPDQIGIITPYEGQRSYLVQYMQFSGSLHTKLYQEVEIASVDAFQGREKDFIILSCVRANEHQGIGFLNDPRRLNVALTRARYGVIIVGNPKALSKQPLWNHLLNYYKEQKVLVEGPLNNLRESLMQFSKPRKLVNTINPGARFMTTAMYDAREAIIPGSVYDRSSQGRPSSMYFQTHDQIGMISAGPSHVAAMNIPIPFNLVMPPMPPPGYFGQANGPAAGRGTPKGKTGRGGRQKNRFGLPGPSQTNLPNSQASQDVASQPFSQGALTQGYISMSQPSQMSQPGLSQPELSQDSYLGDEFKSQIDVALSQDSTYQGERAYQHGGVTGLSQY
B3: ILF3 (protein, UniProt Q12906 1-894)
chain: MRPMRIFVNDDRHVMAKHSSVYPTQEELEAVQNMVSHTERALKAVSDWIDEQEKGSSEQAESDNMDVPPEDDSKEGAGEQKTEHMTRTLRGVMRVGLVAKGLLLKGDLDLELVLLCKEKPTTALLDKVADNLAIQLAAVTEDKYEILQSVDDAAIVIKNTKEPPLSLTIHLTSPVVREEMEKVLAGETLSVNDPPDVLDRQKCLAALASLRHAKWFQARANGLKSCVIVIRVLRDLCTRVPTWGPLRGWPLELLCEKSIGTANRPMGAGEALRRVLECLASGIVMPDGSGIYDPCEKEATDAIGHLDRQQREDITQSAQHALRLAAFGQLHKVLGMDPLPSKMPKKPKNENPVDYTVQIPPSTTYAITPMKRPMEEDGEEKSPSKKKKKIQKKEEKAEPPQAMNALMRLNQLKPGLQYKLVSQTGPVHAPIFTMSVEVDGNSFEASGPSKKTAKLHVAVKVLQDMGLPTGAEGRDSSKGEDSAEETEAKPAVVAPAPVVEAVSTPSAAFPSDATAEQGPILTKHGKNPVMELNEKRRGLKYELISETGGSHDKRFVMEVEVDGQKFQGAGSNKKVAKAYAALAALEKLFPDTPLALDANKKKRAPVPVRGGPKFAAKPHNPGFGMGGPMHNEVPPPPNLRGRGRGGSIRGRGRGRGFGGANHGGYMNAGAGYGSYGYGGNSATAGYSQFYSNGGHSGNASGGGGGGGGGSSGYGSYYQGDNYNSPVPPKHAGKKQPHGGQQKPSYGSGYQSHQGQQQSYNQSPYSNYGPPQGKQKGYNHGQGSYSYSNSYNSPGGGGGSDYNYESKFNYSGSGGRSGGNSYGSGGASYNPGSHGGYGGGSGGGSSYQGKQGGYSQSNYNSPGSGQNYSGPPSSYQSSQGGYGRNADHSMNYQYR
B4: RBM14 (protein, UniProt Q96PK6 1-669)
chain: MKIFVGNVDGADTTPEELAALFAPYGTVMSCAVMKQFAFVHMRENAGALRAIEALHGHELRPGRALVVEMSRPRPLNTWKIFVGNVSAACTSQELRSLFERRGRVIECDVVKDYAFVHMEKEADAKAAIAQLNGKEVKGKRINVELSTKGQKKGPGLAVQSGDKTKKPGAGDTAFPGTGGFSATFDYQQAFGNSTGGFDGQARQPTPPFFGRDRSPLRRSPPRASYVAPLTAQPATYRAQPSVSLGAAYRAQPSASLGVGYRTQPMTAQAASYRAQPSVSLGAPYRGQLASPSSQSAAASSLGPYGGAQPSASALSSYGGQAAAASSLNSYGAQGSSLASYGNQPSSYGAQAASSYGVRAAASSYNTQGAASSLGSYGAQAASYGAQSAASSLAYGAQAASYNAQPSASYNAQSAPYAAQQAASYSSQPAAYVAQPATAAAYASQPAAYAAQATTPMAGSYGAQPVVQTQLNSYGAQASMGLSGSYGAQSAAAATGSYGAAAAYGAQPSATLAAPYRTQSSASLAASYAAQQHPQAAASYRGQPGNAYDGAGQPSAAYLSMSQGAVANANSTPPPYERTRLSPPRASYDDPYKKAVAMSKRYGSDRRLAELSDYRRLSESQLSFRRSPTKSSLDYRRLPDAHSDYARYSGSYNDYLRAAQMHSGYQRRM

Molecular target: T1, FOSL1 (human (endogenous in Th17 cells))
Assay: affinity purification with mass spectrometry

Molecule | binding
CLTC (from UniProt Q00610 1-1675) | binds
COL1A2 (from UniProt P08123 80-1119) | binds
DDX17 (from UniProt Q92841 1-729) | binds
FUBP3 (from UniProt Q96I24 1-572) | binds
SMARCA2 (from UniProt P51531 1-1590) | binds
SMARCB1 (from UniProt Q12824 1-385) | binds
SMARCC1 (from UniProt Q92922 1-1105) | binds
SMARCC2 (from UniProt Q8TAQ2 1-1214) | binds
SMARCD2 (from UniProt Q92925 1-531) | binds
SMARCE1 (from UniProt Q969G3 1-411) | binds
TRIM21 (from UniProt P19474 1-475) | binds
UPF2 (from UniProt Q9HAU5 1-1272) | binds
XRN1 (from UniProt Q8IZH2 1-1706) | binds
histone deacetylase 2 (HDAC2) (from UniProt Q92769 1-488) | binds
poly-C binding protein 1 (PCBP1) (from UniProt Q15365 1-356) | binds
B1 | binds
B2 | binds
B3 | binds
B4 | binds
